This note sets out measurements from US20220088053.

Weaker means in comparison with the reference protein, sequence or condition of that experiment. Tags and fusion partners may be left off the protein sequences shown.

In the data set the target is T1, USB1 wild-type (Homo sapiens) (UniProt Q9BQ65).
T1 sequence: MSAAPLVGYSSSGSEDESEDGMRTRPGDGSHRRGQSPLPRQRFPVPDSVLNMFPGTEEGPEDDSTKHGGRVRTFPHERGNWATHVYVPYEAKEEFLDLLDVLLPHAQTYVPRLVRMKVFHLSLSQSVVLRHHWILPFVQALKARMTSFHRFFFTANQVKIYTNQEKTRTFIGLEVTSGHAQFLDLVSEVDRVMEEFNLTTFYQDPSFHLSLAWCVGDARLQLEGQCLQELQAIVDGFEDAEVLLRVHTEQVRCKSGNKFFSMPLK
Nature of the data set: enzyme reaction in vitro. Conditions: 37 C, 1 mM EDTA, purified recombinant protein, protein details: His (pColdI vector, E. coli Rosetta2), label: 5'-FAM.

On to “AAUUCGUGAAGCGUUCCAUAUUUUUAAAAAAA [U6-oA]”, for which, for the setting “rapid removal of 3' adenosines, variant of U6-oU”, the “activity on this sequence” value was “active”.

In the case of AAUUCGUGAAGCGUUCCAUAUUUUU [U6-oU], the “activity on this sequence” value (removes a single U, oligo(U) tail not progressively removed) is reported as “less active”.

Consider “AAUUCGUGAAGCGUUCCAUAUUUUUAAUAAUAAUAAUAA [U6-oUA]”, for which, where the note is “trimmed UAA intermediates seen, variant of U6-oU”, the “activity on this sequence” value is “active”.

As for “UCCCUGAGACCCUUUAACCUGUGAUUAAA [miR125a-oUA]”, the “activity on this sequence” value (3' adenosines removed, variant of miR125a-native) is on record as “active”.

With CCUUUCCUUUUUUUUU [16mer-oU], for the setting “single U removal confirmed with shorter RNA substrates”, the “activity on this sequence” value is “less active”.

Turning to “UCCCUGAGACCCUUUAACCUGUGAUUUUU [miR125a-oU]”, the “activity on this sequence” value (slowly removes one 3' U only, variant of miR125a-native) was “less active”.

In the case of “UCCCUGAGACCCUUUAACCUGUGAAAAAA [miR125a-oA]”, the “activity on this sequence” value (efficient time-dependent deadenylation, variant of miR125a-native) was “active”.
